# No constants are given. Whether binding was seen depends on the method and setting. Binding seen in cells or lysates may run through a third protein. Here binding means that the protein was enriched with, or labelled near, the bait; the list need not be complete.
# By UniProt entry, the sequences of proteins in these tests, tags left out.
# UniProt O43707: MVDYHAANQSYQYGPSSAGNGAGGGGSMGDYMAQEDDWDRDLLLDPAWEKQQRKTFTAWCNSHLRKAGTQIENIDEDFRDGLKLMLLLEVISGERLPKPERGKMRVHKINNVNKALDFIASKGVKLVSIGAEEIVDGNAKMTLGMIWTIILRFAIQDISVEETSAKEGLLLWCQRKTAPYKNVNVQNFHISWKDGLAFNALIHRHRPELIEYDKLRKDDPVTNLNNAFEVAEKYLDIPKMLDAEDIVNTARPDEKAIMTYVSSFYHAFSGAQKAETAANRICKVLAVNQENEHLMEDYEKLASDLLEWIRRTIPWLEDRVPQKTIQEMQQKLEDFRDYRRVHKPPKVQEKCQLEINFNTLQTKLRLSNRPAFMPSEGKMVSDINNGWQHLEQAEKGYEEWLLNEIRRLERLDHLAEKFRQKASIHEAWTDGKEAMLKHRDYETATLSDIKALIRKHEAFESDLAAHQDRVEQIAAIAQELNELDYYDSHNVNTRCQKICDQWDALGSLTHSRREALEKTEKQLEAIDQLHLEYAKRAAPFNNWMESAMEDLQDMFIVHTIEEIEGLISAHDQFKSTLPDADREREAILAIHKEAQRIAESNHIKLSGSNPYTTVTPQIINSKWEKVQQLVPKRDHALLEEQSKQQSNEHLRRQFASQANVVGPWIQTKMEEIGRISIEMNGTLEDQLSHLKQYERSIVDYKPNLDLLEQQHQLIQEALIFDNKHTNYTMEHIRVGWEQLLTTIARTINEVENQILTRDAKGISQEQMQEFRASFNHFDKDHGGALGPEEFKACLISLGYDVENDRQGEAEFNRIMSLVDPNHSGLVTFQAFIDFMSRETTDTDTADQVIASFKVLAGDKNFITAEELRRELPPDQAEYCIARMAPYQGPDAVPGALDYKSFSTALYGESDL
# UniProt P21333: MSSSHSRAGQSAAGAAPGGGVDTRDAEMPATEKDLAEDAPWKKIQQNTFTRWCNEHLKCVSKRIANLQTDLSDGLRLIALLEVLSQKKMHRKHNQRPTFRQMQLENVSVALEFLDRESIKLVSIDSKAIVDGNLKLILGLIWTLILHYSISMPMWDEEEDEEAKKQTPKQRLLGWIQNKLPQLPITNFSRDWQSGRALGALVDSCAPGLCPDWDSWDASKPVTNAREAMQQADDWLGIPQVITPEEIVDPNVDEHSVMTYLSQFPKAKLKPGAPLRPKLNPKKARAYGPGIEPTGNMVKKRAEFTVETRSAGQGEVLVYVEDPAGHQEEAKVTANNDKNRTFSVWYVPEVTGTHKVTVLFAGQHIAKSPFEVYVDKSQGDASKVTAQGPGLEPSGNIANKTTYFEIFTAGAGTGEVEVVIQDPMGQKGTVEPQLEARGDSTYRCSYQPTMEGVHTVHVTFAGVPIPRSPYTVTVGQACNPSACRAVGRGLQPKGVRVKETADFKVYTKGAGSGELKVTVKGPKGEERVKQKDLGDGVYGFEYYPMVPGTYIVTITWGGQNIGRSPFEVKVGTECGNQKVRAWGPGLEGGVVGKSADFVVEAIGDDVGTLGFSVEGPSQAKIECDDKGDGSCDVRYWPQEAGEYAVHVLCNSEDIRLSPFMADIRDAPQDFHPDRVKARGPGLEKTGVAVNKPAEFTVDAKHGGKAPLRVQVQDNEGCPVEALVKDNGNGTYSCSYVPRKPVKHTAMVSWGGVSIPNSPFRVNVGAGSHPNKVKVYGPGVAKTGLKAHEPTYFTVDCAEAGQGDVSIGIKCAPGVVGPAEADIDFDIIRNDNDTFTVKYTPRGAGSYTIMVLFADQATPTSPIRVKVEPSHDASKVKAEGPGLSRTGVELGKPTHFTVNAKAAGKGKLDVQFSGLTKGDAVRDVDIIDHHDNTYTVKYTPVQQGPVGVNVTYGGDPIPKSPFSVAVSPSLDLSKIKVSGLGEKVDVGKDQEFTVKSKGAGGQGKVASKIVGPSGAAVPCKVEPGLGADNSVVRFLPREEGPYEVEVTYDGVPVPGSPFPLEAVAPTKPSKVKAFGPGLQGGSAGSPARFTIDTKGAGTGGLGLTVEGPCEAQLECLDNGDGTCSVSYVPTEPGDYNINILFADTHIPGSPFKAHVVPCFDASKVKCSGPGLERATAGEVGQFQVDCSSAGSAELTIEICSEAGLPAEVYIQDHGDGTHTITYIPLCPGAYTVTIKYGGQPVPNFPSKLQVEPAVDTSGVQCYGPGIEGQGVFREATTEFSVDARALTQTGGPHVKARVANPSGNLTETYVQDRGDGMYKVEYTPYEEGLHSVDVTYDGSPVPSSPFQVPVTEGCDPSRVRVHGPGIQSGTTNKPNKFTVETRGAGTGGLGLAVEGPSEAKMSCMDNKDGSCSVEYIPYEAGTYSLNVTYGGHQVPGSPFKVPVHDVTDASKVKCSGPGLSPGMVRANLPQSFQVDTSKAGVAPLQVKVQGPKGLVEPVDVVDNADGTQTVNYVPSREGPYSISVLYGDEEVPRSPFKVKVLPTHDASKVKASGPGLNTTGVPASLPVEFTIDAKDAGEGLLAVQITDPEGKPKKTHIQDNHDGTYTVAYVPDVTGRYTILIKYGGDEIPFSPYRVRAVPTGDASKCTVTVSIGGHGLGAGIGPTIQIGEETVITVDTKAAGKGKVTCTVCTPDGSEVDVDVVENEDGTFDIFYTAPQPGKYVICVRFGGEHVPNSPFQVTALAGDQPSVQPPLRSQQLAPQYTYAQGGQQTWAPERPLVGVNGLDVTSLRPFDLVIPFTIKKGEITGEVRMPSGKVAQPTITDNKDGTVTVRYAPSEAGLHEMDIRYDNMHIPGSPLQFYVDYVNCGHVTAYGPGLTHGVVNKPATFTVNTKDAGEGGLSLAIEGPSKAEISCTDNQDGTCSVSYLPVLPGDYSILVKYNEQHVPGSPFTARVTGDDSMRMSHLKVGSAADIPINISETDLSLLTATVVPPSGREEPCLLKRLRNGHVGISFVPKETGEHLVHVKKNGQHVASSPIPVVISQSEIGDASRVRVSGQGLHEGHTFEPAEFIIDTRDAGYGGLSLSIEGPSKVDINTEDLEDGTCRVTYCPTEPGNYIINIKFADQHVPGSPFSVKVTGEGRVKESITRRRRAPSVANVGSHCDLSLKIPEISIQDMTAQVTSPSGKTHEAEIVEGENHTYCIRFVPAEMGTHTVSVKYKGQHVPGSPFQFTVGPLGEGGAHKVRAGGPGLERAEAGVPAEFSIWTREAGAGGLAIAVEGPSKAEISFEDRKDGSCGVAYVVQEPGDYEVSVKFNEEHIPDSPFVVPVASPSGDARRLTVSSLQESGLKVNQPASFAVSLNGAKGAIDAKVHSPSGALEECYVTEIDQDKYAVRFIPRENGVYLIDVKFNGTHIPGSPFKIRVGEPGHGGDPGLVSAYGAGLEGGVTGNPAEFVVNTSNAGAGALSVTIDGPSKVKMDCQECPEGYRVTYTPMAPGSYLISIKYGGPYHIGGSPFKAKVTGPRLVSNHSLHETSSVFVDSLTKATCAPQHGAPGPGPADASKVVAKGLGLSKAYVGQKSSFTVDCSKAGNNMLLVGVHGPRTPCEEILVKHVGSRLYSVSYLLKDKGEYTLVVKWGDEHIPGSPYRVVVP
# Target: T1, RASSF1A (human (endogenous in HeLa)) (UniProt Q9NS23)
# T1 sequence: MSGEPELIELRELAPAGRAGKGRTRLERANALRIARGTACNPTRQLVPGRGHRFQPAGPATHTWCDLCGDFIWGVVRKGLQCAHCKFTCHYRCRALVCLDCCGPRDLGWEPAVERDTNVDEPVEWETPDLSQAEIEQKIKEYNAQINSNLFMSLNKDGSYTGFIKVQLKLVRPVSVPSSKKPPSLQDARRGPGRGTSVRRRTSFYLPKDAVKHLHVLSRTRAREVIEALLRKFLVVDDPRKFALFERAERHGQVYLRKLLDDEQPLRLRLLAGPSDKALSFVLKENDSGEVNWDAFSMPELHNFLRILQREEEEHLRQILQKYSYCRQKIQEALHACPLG
# Assay: affinity purification with mass spectrometry; endogenous RASSF1A immunoprecipitated (10 μg anti-RASSF1A Atlas HPA040735 or rIgG, protein A Dynabeads, 10 mg lysate in 1% NP-40 buffer, 3 hours, 4°C) from control versus sorbitol-exposed HeLa cells; on-bead digest, LC-MS/MS
row,Substance,binding
1,α-actinin 4 (ACTN4) (from UniProt O43707 1-911),binds
2,Filamin-A (from UniProt P21333 1-2647),binds

# — paper PMC11827640
